## Screening data, single-dose tests

The values are deposited in ChEMBL (CHEMBL3988442, “University of Dundee, Small-Polar-MMV Screening Library” (2021)).

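Whole-cell growth test on Mycobacterium tuberculosis, read after 4 days in a medium based on cholesterol and the lipid DPPC; the read-out is not stated. Compounds at 50 µM. Higher reads as more growth inhibition (inferred: compounds with an IC50 in retests scored well above the rest). Size under these conditions: about 69,000 compounds, about 370 of them at 50% or above in at least one test.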

Results are given as percent effect. The controls that fix the scale are not given in the record; negative values are as filed. The compounds are a random part of those screened. Two or more numbers in one place are separate tests of the same structure; such repeats can differ widely.

- COCc1cccc(C(=O)N2CCCC2)c1 | 6.691%
- O=C(NCc1ccc(Br)cc1F)C1(O)CCSCC1 | 13.87%
- CNS(=O)(=O)c1cccc(CNc2nccc(C(F)(F)F)n2)c1 | -52.16%
- COc1ccccc1[C@@H]1CN(Cc2c(C)noc2C)C[C@H]1C(=O)O | 4.422%
- O=C(NCCN1CCc2ccccc2C1)c1scnc1Cl | 3.54%
- O=C(NCC(F)(F)F)NC1CCCc2c1cnn2CCO (stereo unspecified) | 14.5%
- O=C(c1cc(C2CC2)[nH]n1)N1CCN(Cc2ccncc2)CC1 | 9.565%
- [H][C@]12CCC[C@@]1(COCC1CCOCC1)CN(C(=O)c1ccncn1)C2 | 0.1548%
- Cc1c[nH]c(CN(C)C(C(=O)O)c2c(F)cccc2Cl)n1 (stereo unspecified) | -0.1469%
- CCC(CC)(CC)NC(=O)Nc1nnc(-c2ccccn2)s1 | -9.083%
- Cc1oc(NC(=O)C(C)N2CCN(C(=O)C3CC3)CC2)c(C#N)c1C (stereo unspecified) | -12.93%
- CO[C@@H]1CN(c2ccccc2)S(=O)(=O)[C@@]12CCN(C(C)=O)C2 | 15.4%
- CC1CCN(S(=O)(=O)N2CCc3c(c(C(=O)O)nn3CC3CC3)C2)CC1 | -16.5% & -11.37%
- COCCCN(Cc1ccccn1)S(=O)(=O)Cc1ccccc1 | 15.17%
- CC(C(=O)N1CCCN(c2ncccc2C#N)CC1)n1cccn1 (stereo unspecified) | -20.43%
- O=C(C1CCCCN1Cc1nc(-c2ccco2)no1)N1CCCC1 (stereo unspecified) | -14.53%
- Cc1nc2c(c(N3CCC4(CCCNC4=O)C3)n1)CCC2 (stereo unspecified) | 3.657%
- CC1=Nc2c(c(O)nn2C(C)C)C(c2cccnc2)S1 (stereo unspecified) | -6.982%
- COc1cccc2c1OCC(NCCc1cnn(-c3ccccc3)c1)C2 (stereo unspecified) | 17.91%
- CCN(CC)S(=O)(=O)c1cnccc1N1CCN(C(C)C)CC1 | -0.03367%
- CCc1nccn1C1CCCN(C(=O)c2cc3nc(C)ccc3o2)C1 (stereo unspecified) | -18.23%
- COc1ccc(C2=C(C)C(N3CCc4ccccc43)=NS2(=O)=O)cc1 | 3.402%
- CCc1nc(C(=O)N2CCN(C)CC2C)nn1-c1ccccc1Cl (stereo unspecified) | 11.54%
- O=C(CCCc1ccccn1)NCC(O)c1ccccc1Cl (stereo unspecified) | -5.215%
- O=C1COC2(CCN(Cc3ccncc3)CC2)CN1CC1CC1 | -15.11% & -7.3%
- CNC(=O)[C@@H](C1CCCCC1)N1CCC[C@H]1C(=O)NCCN1CCCC1.Cl.Cl | -17.08%
- Cc1ccc(OC2(C(=O)O)CCN(C(=O)c3ccc(F)cc3)CC2)cn1 | 1.184%
- CC(C)NC(=O)c1cc(-c2ccc(S(C)(=O)=O)cc2)c2cnn(C)c2n1 | -18.25%
- CCN(C(=O)CCc1ccc2[nH]ccc2c1)C1CC(=O)NC1=O (stereo unspecified) | -8.737%
- Cc1cc(C)c(CNC(=O)N2CCCC2c2ccccc2)c(=O)[nH]1 (stereo unspecified) | -4.191%
- CC(C)=CCN1CCC2(CC1)c1ccccc1[C@@H](N1CCSCC1)[C@@H]2O | -11.87%
- O=C(c1ccccn1)N1CCN(c2ccc(-n3cccc3)nn2)CC1 | 10.2%
- CCc1cccc(N2CCC(NC(=O)CCNC(N)=O)CC2)c1 | -14.52%
- CCc1nc2c(c(NC3CC3)n1)CCN(C(=O)Cc1nonc1C)CC2 | 8.812%
- CC1CN(C)CCN1C(=O)c1ccn(-c2cccc(Cl)c2)n1 (stereo unspecified) | -5.249%
- O=C(O)C(F)(F)F.[H][C@]12CCN(Cc3c(C)noc3C)[C@@]1([H])CC[C@H](COCC1CC1)O2 | -2.513%
- Cc1ccc(CNC2CCc3nc(C(C)C)nn3C2)o1 (stereo unspecified) | -4.463%
- CN1CCC2(CC1)CN(Cc1ccc(C3CCCCO3)o1)CCCN2C (stereo unspecified) | 3.01% & -2.422%
- O=C(c1csc(C2CC2)n1)N1CCCC1Cn1cccn1 (stereo unspecified) | 4.14%
- Cn1cncc1-c1nnc([C@H]2CCN(CC3CCCCC3)C2)o1 | -10.86%

The first 4 entries again:

With COCc1cccc(C(=O)N2CCCC2)c1 the screen gave 6.691%.
With O=C(NCc1ccc(Br)cc1F)C1(O)CCSCC1 the screen gave 13.87%.
With CNS(=O)(=O)c1cccc(CNc2nccc(C(F)(F)F)n2)c1 the screen gave -52.16%.
With COc1ccccc1[C@@H]1CN(Cc2c(C)noc2C)C[C@H]1C(=O)O the screen gave 4.422%.